From paper PMC7819943, “Rice protein-binding microarrays: a tool to detect cis-acting elements near promoter regions in rice”
This is one part of the list.

The chains behind the UniProt entries cited, without tags or fusion partners.
UniProt Q0JBA9, entry or part of it: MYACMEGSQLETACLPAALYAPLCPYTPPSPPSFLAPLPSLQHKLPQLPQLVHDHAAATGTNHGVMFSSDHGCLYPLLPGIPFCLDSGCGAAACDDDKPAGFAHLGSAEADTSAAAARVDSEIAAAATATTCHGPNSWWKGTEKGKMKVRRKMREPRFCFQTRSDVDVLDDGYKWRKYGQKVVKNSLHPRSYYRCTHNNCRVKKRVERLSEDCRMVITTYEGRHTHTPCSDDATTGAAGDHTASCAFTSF

biological target: OsWRKY34 (Oryza sativa, UniProt Q0JBA9 1-250); experiment: protein-binding microarray (RPBM); PBS, 2% BSA, 51.3 ng/ul salmon testes DNA, 50 uM zinc acetate, 200 nM TF, 25 C, 1 h; high values mean tight binding; conditions: protein: recombinant; tags: N-terminal polyhistidine and DsRed monomer fusion (pET32a); label: CyDye5-dUTP incorporated in the synthesized complementary strand; 3' TTTTT single-stranded linker to array surface; dsDNA, one strand shown
Method in brief: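 Binding signal is defined as the fluorescence intensity of each feature in arbitrary units, read on an Axon 4000B scanner. Transcription factors with N-terminal polyhistidine and DsRed fusions came from E. coli BL21-CodonPlus and were purified on Ni–NTA. They were incubated at 200 nM for 1 h at 25 °C on a custom Agilent array that had been made double-stranded with Cy5-dUTP, with 50 µM zinc acetate present, and the array was washed.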

Sequence | binding signal
TCCTATTCCTTTATTTTTTCATTCCTACTATTCGGAGGAGCGGAGTCACCTAGTGCAG | 8120 fluorescence intensity (a.u.)
ACTTTTTAACCAACGTTTGACCATTCGTCTTATTCAAATTCGGAGTCACCTAGTGCAG | 10600 fluorescence intensity (a.u.)
GCTATTTTTTCGTTTCTGGATTCCCTATTCTTGTCCCGTCCGGAGTCACCTAGTGCAG | 10800 fluorescence intensity (a.u.)
CCCGCCTCGCGTCGCCGCCGCCGCCGCCGCCCCGCGCGCCCGGAGTCACCTAGTGCAG | 9640 fluorescence intensity (a.u.)
GCGCCTTTACTCCTTTACCATGTCGTTTTTTTACTCCAAGCGGAGTCACCTAGTGCAG | 13500 fluorescence intensity (a.u.)
CGAGTGCCAGCCATCCCACTCCACCTTTGCCTCGTCGTCTCGGAGTCACCTAGTGCAG | 11100 fluorescence intensity (a.u.)
CTTCCAGCGATGCCGCAGCCGTTTTGCGCCGCCCGCACTGCGGAGTCACCTAGTGCAG | 8480 fluorescence intensity (a.u.)
ACATCAACCTGTCATACACACACAACTTTTCAGTCACATCCGGAGTCACCTAGTGCAG | 8160 fluorescence intensity (a.u.)
CTCCTCTCTCACGCGTCTCTGTTCCCGTCCTCATCCCGACCGGAGTCACCTAGTGCAG | 10100 fluorescence intensity (a.u.)
CACTTTTGAGTATTACATGTCTCATCAATCATCTTCATTTCGGAGTCACCTAGTGCAG | 9400 fluorescence intensity (a.u.)
CCCACCTCGCTGTCGTTTCTTCCTCTGGCTGGTCGCGTTGCGGAGTCACCTAGTGCAG | 12700 fluorescence intensity (a.u.)
CGTCCAACTTTGATCGTCCGTTTTATTTGAATTTTTTTATCGGAGTCACCTAGTGCAG | 11200 fluorescence intensity (a.u.)
TTGATTGTATCCCTGGGCACTTGTATTCTTGAGTGGATTTCGGAGTCACCTAGTGCAG | 9480 fluorescence intensity (a.u.)
AACCCGGTTTTATCCTATGTGGCTGCTAACTCAGCGTGGGCGGAGTCACCTAGTGCAG | 8100 fluorescence intensity (a.u.)
AGTAACTGTTCTTGTTTGTGCTCTGTAAAATTTGTATATCCGGAGTCACCTAGTGCAG | 9860 fluorescence intensity (a.u.)
TCCGTTACCCTTGAAGCCTTATGGAGCTTTGCCTCTTGTTCGGAGTCACCTAGTGCAG | 9310 fluorescence intensity (a.u.)
ATTAGTCCAACTATAAAGGCTGCAATTTTCTCTTCCATTGCGGAGTCACCTAGTGCAG | 8170 fluorescence intensity (a.u.)
AGAATTTACTACTTTGTCTTACATTAGCTTACGGCATTTACGGAGTCACCTAGTGCAG | 9340 fluorescence intensity (a.u.)
ACTATCTACGTCATCTCCTATTTCTTCCCTTTTCTTCTCTCGGAGTCACCTAGTGCAG | 11600 fluorescence intensity (a.u.)
TGACATCGTCTTCTCCAACTTCGGCCGCCGGCGTCAATCTCGGAGTCACCTAGTGCAG | 8120 fluorescence intensity (a.u.)
TCCTCGCCTCATCCGCCACCACGGTTTGCTTCGCCACACGCGGAGTCACCTAGTGCAG | 9120 fluorescence intensity (a.u.)
ACTTTTTTGCTTTCCCAACTGCTCCTGTGGATGTAACGCCCGGAGTCACCTAGTGCAG | 9160 fluorescence intensity (a.u.)
GGTCCCTGCCTCGTGAGCAGCCCATCTGCACTGCCTTCTGCGGAGTCACCTAGTGCAG | 8310 fluorescence intensity (a.u.)
TTTGCGTTGGTTCTGAGGGTGTTCTTTTGGGCAATCTCGTCGGAGTCACCTAGTGCAG | 10600 fluorescence intensity (a.u.)
TGAGTGGTGGGAGGAGTTAGCAAGTGGTTTGACCGTGGTTCGGAGTCACCTAGTGCAG | 11800 fluorescence intensity (a.u.)
ATTTGTTTCGACTAGCCTGTGCATCAATGTTTCCCAACTCCGGAGTCACCTAGTGCAG | 15800 fluorescence intensity (a.u.)
CGAATTCGTCGTCGGCCATCACCGACCGCGGTGCTCCCTGCGGAGTCACCTAGTGCAG | 8500 fluorescence intensity (a.u.)

Pulled one by one from the entries so far, 4 records:
Sequence | binding signal
AGTAACTGTTCTTGTTTGTGCTCTGTAAAATTTGTATATCCGGAGTCACCTAGTGCAG | 9860 fluorescence intensity (a.u.)
TCCGTTACCCTTGAAGCCTTATGGAGCTTTGCCTCTTGTTCGGAGTCACCTAGTGCAG | 9310 fluorescence intensity (a.u.)
TCCTCGCCTCATCCGCCACCACGGTTTGCTTCGCCACACGCGGAGTCACCTAGTGCAG | 9120 fluorescence intensity (a.u.)
CGTCCAACTTTGATCGTCCGTTTTATTTGAATTTTTTTATCGGAGTCACCTAGTGCAG | 11200 fluorescence intensity (a.u.)

Next part.

Sequence | binding signal
TGTTCAGTCTTTTGGTCATAAATATTTGATCATAAAAATTCGGAGTCACCTAGTGCAG | 12300 fluorescence intensity (a.u.)
GGGGAGAATAACCTGGAGGAGAGCTGGTGGAGGGGTCTTACGGAGTCACCTAGTGCAG | 9360 fluorescence intensity (a.u.)
GCAGGTCCTCGTCAATCTCCGGCACCACCACTCCATTCGTCGGAGTCACCTAGTGCAG | 9560 fluorescence intensity (a.u.)
TTCCTTGTACCTATTTGCAATCAATGACAGTGTTCCCCATCGGAGTCACCTAGTGCAG | 8850 fluorescence intensity (a.u.)
GCCGCCGCCTCTCCGCTTCGCAGCGCCGGCGCCGACTCCACGGAGTCACCTAGTGCAG | 8500 fluorescence intensity (a.u.)
TGCCCTATTCAGACTATTTTTAAATTCTTGATTAAACTCACGGAGTCACCTAGTGCAG | 8580 fluorescence intensity (a.u.)
GACAAGACTGAGACATTGCTAACGACTACGTAGTCTTTTCCGGAGTCACCTAGTGCAG | 10200 fluorescence intensity (a.u.)
CCACATCCCACAGGCCGCGCTTTCTTTCTCAAAGCTTTAACGGAGTCACCTAGTGCAG | 8950 fluorescence intensity (a.u.)
GTTCGAGCTGACTCGTGTGTGTTGTTATGTGTGTGGGTGTCGGAGTCACCTAGTGCAG | 10600 fluorescence intensity (a.u.)
ACATAGCTCGAGCTCGTTTGGTCCTACGCATGGCCACTCTCGGAGTCACCTAGTGCAG | 8640 fluorescence intensity (a.u.)
AGTTGGTATGTGTATGTCAAAAATAGTTTGTTTTCAGCGACGGAGTCACCTAGTGCAG | 9650 fluorescence intensity (a.u.)
CAAAATAATCGTGTTGTACCTGAACTTACTTTCAACATAACGGAGTCACCTAGTGCAG | 8330 fluorescence intensity (a.u.)
TGCTCCGCCTCGTCGACAACACCTGCAGCGACAGCTTCGACGGAGTCACCTAGTGCAG | 8670 fluorescence intensity (a.u.)
GGAGGAGGAGCTAGGGTTTCGGATGGGAGGAGGAGGAGGGCGGAGTCACCTAGTGCAG | 8800 fluorescence intensity (a.u.)
GCGGCGGGGTTCCTATCCATGGTTTTTTCGGGCTTGTCCACGGAGTCACCTAGTGCAG | 18900 fluorescence intensity (a.u.)
TACTGCAACACTCATATTAATCATGGTTTAATTATTTCTCCGGAGTCACCTAGTGCAG | 9070 fluorescence intensity (a.u.)
AATACTGTAATTCCTGACTTTGCATTTAGCCTATGTAATTCGGAGTCACCTAGTGCAG | 9340 fluorescence intensity (a.u.)
AATTATTTTTGGTTGCTTCGTTCATTTTTTCACGGCTTATCGGAGTCACCTAGTGCAG | 14600 fluorescence intensity (a.u.)
ACCTCTTCCTCGACGCCGCCGCCGACCACCACCCCGCCGGCGGAGTCACCTAGTGCAG | 8670 fluorescence intensity (a.u.)
CCCCGAATACAATTTACTTGAATCGTTCTTTTACCATGTTCGGAGTCACCTAGTGCAG | 9020 fluorescence intensity (a.u.)
ATGTTACTGTATGATTAAGGACCACAGATACATGTCTTTTCGGAGTCACCTAGTGCAG | 8480 fluorescence intensity (a.u.)
ATCAAACCACTTCCATCTCTCAATTCTCAAGCACACACACCGGAGTCACCTAGTGCAG | 8310 fluorescence intensity (a.u.)
CTACTTTTCTTTTCTTTTTTGCCTAATACTACTTTGTATACGGAGTCACCTAGTGCAG | 9720 fluorescence intensity (a.u.)
ATCTACCTTTTCTCACGTCAACCCACACCTCGTCCCCGTCCGGAGTCACCTAGTGCAG | 14200 fluorescence intensity (a.u.)
GGACTTGTACGTTTTGTGAACCTCATTATTTTGTTCCAAGCGGAGTCACCTAGTGCAG | 9440 fluorescence intensity (a.u.)
GCGAGGTTGGGGACGGTAGGGAGGACGATGGGGAAGGACTCGGAGTCACCTAGTGCAG | 8340 fluorescence intensity (a.u.)
GGGTTTTATAGCTTTTTTAACGTACATCTTTTTTTTCAAACGGAGTCACCTAGTGCAG | 9740 fluorescence intensity (a.u.)
